The test has as its system Cryptococcus neoformans 0634 (ATCC90112). Nature of the test: MIC, antifungal spectrum (Table 3). It is filed as cell-based. On the procedure: The activities of several exemplary compounds of the present invention were assayed according to the CLSI standard M38-A2 titled “Reference Method for Broth Dilution Antifungal Susceptibility Testing of Filamentous Fungi”. However, the RPMI-1640 broth is substituted for a YPD medium formulated according to the following steps: […]
1. Dissolve 10 g of BactoYeast extract in 500 ml water
2. Dissolve 20 g of BactoPeptone in the above solution
3. Dissolve 20 g Dextrose in the above solution* *Ordinary table sugar (sucrose) substituted for dextrose routinely.
4. q.s. to 1000 ml with water

The record followed here is patent publication US8906848B2, “Aureobasidin derivatives and methods of synthesis” (priority 2011, dated 2014).

Values after ≈ are worked out from the molar mass of the structure shown.

Broadly, the MIC is the lowest concentration that inhibits growth of the organism. Lower therefore signals inhibition by little substance. Consider `C[C@@H]1[C@H](O)[C@@H](C)/C=C/C=C/C=C/C=C/C=C/C=C/C=C/[C@H](O[C@@H]2O[C@H](C)[C@@H](O)[C@H](N)[C@@H]2O)C[C@@H]2O[C@](O)(C[C@@H](O)C[C@@H](O)[C@H](O)CC[C@@H](O)C[C@@H](O)CC(=O)O[C@H]1C)C[C@H](O)[C@H]2C(=O)O` [Amphotericin, Amphotericin B], for which the MIC was determined as 0.015 µg/mL (≈ 0.0162 µM) (48 hr reading) and 0.03 µg/mL (≈ 0.0325 µM) (72 hr reading).
